This note sets out measurements from patent US20040253243.

Chains of the proteins cited; added tags and fusions are not shown. A line that says so, or that is headed by a name, gives the form on record, which may keep a tag or linker. Residues count along the entry.
UniProt Q05028, 74-182: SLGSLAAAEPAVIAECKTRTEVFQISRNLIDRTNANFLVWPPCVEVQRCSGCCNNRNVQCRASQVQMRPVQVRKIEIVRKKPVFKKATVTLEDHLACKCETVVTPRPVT
UniProt P61812, other isoform, or with tags, fused parts or gaps: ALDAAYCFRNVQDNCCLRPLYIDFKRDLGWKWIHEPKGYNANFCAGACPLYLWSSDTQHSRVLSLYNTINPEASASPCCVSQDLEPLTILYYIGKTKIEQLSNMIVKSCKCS

Series [1] concerns the target PDGF-AA (Homo sapiens) (UniProt P04085). Kind of series: binding assay. The conditions noted are these: [PEG40K]-NH2-dCdAdGdGdCfUdAfCmG-PEG-dCdGTdAmGdAmGdCdAfUfCmA-PEG-TdGdATfCfCfUmG-3T (f 2'-F, m 2'-OMe, d deoxy; PEG spacers); AA isoform not recognized.
For series [2], the target named is PDGF-BB (Rattus) (UniProt Q05028). Kind of series: binding assay. The conditions noted are these: [PEG40K]-NH2-dCdAdGdGdCfUdAfCmG-PEG-dCdGTdAmGdAmGdCdAfUfCmA-PEG-TdGdATfCfCfUmG-3T (f 2'-F, m 2'-OMe, d deoxy; PEG spacers); equivalent affinity to human PDGF.
Series [3] addresses PDGF-BB (Homo sapiens) (UniProt P01127). Kind of series: activity in cells. As to conditions: [PEG40K]-NH2-dCdAdGdGdCfUdAfCmG-PEG-dCdGTdAmGdAmGdCdAfUfCmA-PEG-TdGdATfCfCfUmG-3T (f 2'-F, m 2'-OMe, d deoxy; PEG spacers); cellular IC50; PDGF isoform not stated.
Series [4] deals with TGF-beta2 (mature, wild type) (Homo sapiens) (UniProt P61812). Kind of series: filter binding. As to conditions: purified recombinant protein.
In series [5] the target is TGF-beta2 N-terminal His-tagged (long tag) (Homo sapiens) (UniProt P61812). As to the kind of experiment: filter binding. The conditions noted are these: 2'-F all C and U, 2'-OH purines, 3'-inverted T (3T); purified recombinant protein; protein details: N-terminal His6 plus about 30 extra residues.
Series [6] addresses TGF-beta2 (mature, wild type) (Homo sapiens) (UniProt P61812). Kind of series: activity in cells. The conditions noted are these: purified recombinant protein; for IC50: cell IC50.
Where [7] appears, read: mGmGmAmGmGfUfUAfUfUmAfCmAmGmAmGfUfCfUGfUAfUAmGfCfUmGfUmAfCfUfCfc-3T (m 2'-OMe, f 2'-F), variant of ARC77.
The mark [8] stands for this setting: 2'-F pyrimidines, 2'-OH purines.

For at least one entry, the source does not settle the construct or the ends of the probe. For some assays here: No signal at the amounts used counts as a negative.

As a reminder, the IC50 is the concentration at which inhibition is half-maximal. Consider CAGGCUACGCGTAGAGCAUCATGATCCUG [ARC127], for which the binding result in series [1] is recorded as “no binding”; in series [2], “binds”. The same sequence registered an IC50 in series [3] of 2 nM.
The term Kd denotes a measure of binding affinity in units of concentration. With “GGAGGUUAUUACAGAGUCUGUAUAGCUGUACUCC [ARC77]”, the Kd is 3.6 nM in series [4] (2'-F all C and U, 2'-OH purines, 3'-inverted T (3T), ±0.6, unit implied, 2.5±0.3 nM in FIG. 6C, 1 nM in Example 8 table, 50 mM Hepes pH 7.4, 1 mM MgCl2, 1 mM CaCl2, 140 mM NaCl, room temperature); > 500 nM in series [5]. For the same sequence, the IC50 in series [6] (2'-F all C and U, 2'-OH purines, 3'-inverted T (3T)) stood at 10 nM.
For the sequence “GGAGGUUAUUACAGAGUCUGUAUAGCUGUACUCC [ARC78]”, the Kd in series [4] (5'-NH2, 2'-F all C and U, 2'-OH purines, 3'-3T, ±0.5, unit implied, 50 mM Hepes pH 7.4, 1 mM MgCl2, 1 mM CaCl2, room temperature, variant of ARC77) came out at 4 nM. Moreover, the “functional effect of the aptamer” value in series [6] (5'-NH2, 2'-F all C and U, 2'-OH purines, 3'-3T, inhibits antiproliferative effect of 50 pg/ml TGF-beta2 on MLEC, variant of ARC77) is reported as “active”.
As to “GGAGGUUAUUACAGAGUCUGUAUAGCUGUACUCC [ARC79]”, the Kd in series [4] (setting [7]) worked out at 1 nM. Further, the IC50 in series [6] (setting [7]) turned out to be 10 nM.
In the case of “GGGAGGACGAUGCGGGCAAAGUAUUGUAGAGUAUGCAUAGCUAUAUUGCCAGACGACUCGCCCGA [AMX(74)_E6]”, the binding result in series [4] (setting [8]) was “binds”.
Consider “GGGAGGACGAUGCGGGCAGAGUAUUAUAGAGUACGUAUAGCUAUACUGUCAGACGACUCGCCCGA [AMX(71)_B7]”, for which the binding result in series [4] (setting [8]) is “binds”.
Same read-out and setting: next, “GGGAGGACGAUGCGGGCAGAGUAUUAUAGAGUAUGUAUAGCUAUACUGUCAGACGACUCGCCCGA [AMX(71)_A9]”: “binds”.
For the sequence “GGGAGGACGAUGCGGGCGGAAUAUUAUAGAGUAUGGAUAGCUAUACCGUCAGACGACUCGCCCGA [S5CR12-14]”, the binding result in series [4] (setting [8]) is recorded as “binds”.
Same read-out and setting: next, “GGGAGGACGAUGCGGGCGGCGUUGUUUAGUCGUAUGUAUAUACUAAGUCCGCCAGACGACUCGCCCGA [21a-4]”: “binds”; “GGGAGGACGAUGCGGGGAGAAUAUUACAGAGUAUGUAUAGCUGUACUGCCAGACGACUCGCCCGA [AMX(74)_A1]”: “binds”; “GGGAGGACGAUGCGGGGAGAAUAUUACAGAGUAUGUAUAGCUGUACUUGCCAGACGACUCGCCCGA [AMX(74)_C3]”: “binds”.
The same measure, in the same setting: next, “GGGAGGACGAUGCGGGGAGAGUAUUAUAGAGUAUGUAUAGCUAUACUGCCAGACGACUCGCCCGA [AMX(74)_G3]”: “binds”; “GGGAGGACGAUGCGGGGAGAUUAUUAUAGAGUAUGUAUAGCUAUACUGCCAGACGACUCGCCCGA [AMX(74)_B3]”: “binds”.
The same measure, in the same setting: next, “GGGAGGACGAUGCGGGGAGGAUGCGGAAGUAACGUUGUAGUAAAAUUCCUUCCAGACGACUCGCCCGA [14i-1]”: “binds”.
Take “GGGAGGACGAUGCGGGGAGGUUAUUACAGAGUCUGUAUAGCUGUACUCCCAGACGACUCGCCCGA [ARC236 (21a-21 full length)]”: the Kd in series [4] (2'-F pyrimidines, 2'-OH purines, DPBS, 1 mM MgCl2, room temperature, full length) was 0.75 nM.
Turning to “GGGAGGACGAUGCGGGUAGAAUAUUACAGAGUAUGUAUAGCUGUACUGCCAGACGACUCGCCCGA [AMX(74)_H1]”, the binding result in series [4] (setting [8]) is “binds”.
Same read-out and setting: for “GGGAGGACGAUGCGGGUAGAAUAUUAUAGAGUCUGUAUAGCUAUACUGCCAGACGACUCGCCCGA [AMX(74)_E2]” the value was “binds”.
The same measure, in the same setting: next, “GGGAGGACGAUGCGGGUAGAUUAUUACAGAGUCUGUAUAGCUGUACUGCCAGACGACUCGCCCGA [AMX(74)_A3]”: “binds”.
Still for that read-out and setting: for “GGGAGGACGAUGCGGGUGGAGUAUUAUAGAGUAUGUAUAGCUAUACUAUCAGACGACUCGCCCAA [AMX(71)_G8]” the value was “binds”; for “GGGAGGACGAUGCGGUAAGAGUAUUACAGAGUAUGUAUAGCUGUACUUGCCAGACGACUCGCCCGA [AMX(74)_A2]”, “binds”.
As to “GGGAGGACGAUGCGGUAGAGUAUUAUAGAGUAUGUAUAGCUAUACACUCAGACGACUCGCCCAA [AMX(71)_D9]”, the binding result in series [4] (setting [8]) is “binds”.
The same measure, in the same setting: for “GGGAGGACGAUGCGGUAGAGUAUUAUAGAGUAUGUAUAGCUAUACCAUCAGACGACUCGCCCGA [AMX(71)_H12]” the value was “binds”.
“GGGAGGACGAUGCGGUCCGCAUUAUCUUCUACGUUACAUAUACUAUCUCUGUCAGACGACUCGCCCGA [AMX(71)_B3]”: the binding result in series [4] (setting [8]) is on record as “binds”.
Same read-out and setting: for “GGGAGGACGAUGCGGUCGGAGUAUUAUAGAGUAUGUAUAGCUAAACCGUCAGACGACUCGCCCGA [AMX(71)_D11]” the value was “binds”; for “GGGAGGACGAUGCGGUGAGAAUAUUACAGAGUAUGUAUAGCUGUACUUGCCAGACGACUCGCCCGA [AMX(74)_E4]”, “binds”; for “GGGAGGACGAUGCGGUGAGAAUAUUAUAGAGUAUGUAUAGCUAUACUCGCCAGACGACUCGCCCAA [AMX(74)_F4]”, “binds”.
For the sequence “GGGAGGACGAUGCGGUGGGAAUAUUAUAGAGUCUGUAUAGCUAUACCCUCAGACGACUCGCCCGA [AMX(71)_G7]”, the binding result in series [4] (setting [8]) is “binds”.
Consider “GGGAGGACGAUGCGGUGUGAAUAUUAUAGAGUCUGUAUAGCUAUACCACCAGACGACUCGCCCGA [AMX(74)_F1]”, for which the binding result in series [4] (setting [8]) is listed as “binds”.
The same measure, in the same setting: for “GGGAGGACGAUGCGGUGUGAAUAUUAUAGAGUCUGUAUAGCUAUACCAUCAGACGACUCGCCCGA [AMX(71)_A10]” the value was “binds”; for “GGGAGGACGAUGGGGAUCGAGUAUUAUAGAGUCUGUAUAGCUAUACGAUCAGACGACUCGCCCGA [AMX(71)_B9]”, “binds”.
Regarding “GGGGUUAUUACAGAGUCUGUAUAGCUGUACCC [ARC81]”, in series [4] (NH2-mGmGmGmGfUfUAfUfUmAfCmAmGmAmGfUfCfUGfUAfUAmGfCfUmGfUmAfCfCfC-3T (m 2'-OMe, f 2'-F), ±0.4, unit implied, 50 mM Hepes pH 7.4, 1 mM MgCl2, 1 mM CaCl2, room temperature, variant of ARC77), the Kd was found to be 5.1 nM. Also, in series [6] (NH2-mGmGmGmGfUfUAfUfUmAfCmAmGmAmGfUfCfUGfUAfUAmGfCfUmGfUmAfCfCfC-3T (m 2'-OMe, f 2'-F), reverses TGF-beta2 inhibition of MLEC proliferation, variant of ARC77, dose not given here), the “functional effect of the aptamer” value is “active”.
